These are yes or no findings as the source states them, for the method shown. Binding seen in cells or lysates may run through a third protein. Binding can be weak; no strength is given.

Holding throughout (assay): co-IP; HEK-293T cells co-transfected with a FLAG-tagged and a GFP-tagged construct, harvested 48 h later in HA-buffer (50 mM Tris-HCl pH 7.5, 150 mM NaCl, 2 mM EDTA, 1 mM EGTA, 1% Triton X-100); cleared lysate on anti-FLAG M2 affinity gel, 1 h, 4 °C; partners detected by Western blot with anti-GFP
Assay [1] concerns the target Atlantic salmon ssTyk2-1, FLAG-tagged (Atlantic salmon (Salmo salar)) (UniProt S5RRC4).
For assay [2], the target named is Atlantic salmon IRF9, FLAG-tagged (Atlantic salmon (Salmo salar)) (UniProt B5X4X0).
Assay [3] addresses Atlantic salmon STAT1a, FLAG-tagged (Atlantic salmon (Salmo salar)) (UniProt C7EY83).

“Atlantic salmon STAT1a, GFP-tagged (from UniProt C7EY83)”: the binding result in assay [1] and in assay [2] was “binds” each time.

As for “Atlantic salmon STAT2a, GFP-tagged (from UniProt X2KK07)”, the binding entry in assay [1], in assay [3] and in assay [2] was “binds” each time.

“Atlantic salmon STAT2b, GFP-tagged (from UniProt X2KN52)”: the binding result in assay [1], in assay [3] and in assay [2] was “binds” throughout.
